Laboratory results: publication PMC4413876
No constants are given. Whether binding was seen depends on the method and setting. Some entries that bind do so weakly or less than the wild type. Tags and fused reporters may be left off the sequences shown.

T1: Pol1, polymerase subunit of Pol α, with a C-terminal 3XFLAG tag (S. cerevisiae) (UniProt P13382)
T1 sequence: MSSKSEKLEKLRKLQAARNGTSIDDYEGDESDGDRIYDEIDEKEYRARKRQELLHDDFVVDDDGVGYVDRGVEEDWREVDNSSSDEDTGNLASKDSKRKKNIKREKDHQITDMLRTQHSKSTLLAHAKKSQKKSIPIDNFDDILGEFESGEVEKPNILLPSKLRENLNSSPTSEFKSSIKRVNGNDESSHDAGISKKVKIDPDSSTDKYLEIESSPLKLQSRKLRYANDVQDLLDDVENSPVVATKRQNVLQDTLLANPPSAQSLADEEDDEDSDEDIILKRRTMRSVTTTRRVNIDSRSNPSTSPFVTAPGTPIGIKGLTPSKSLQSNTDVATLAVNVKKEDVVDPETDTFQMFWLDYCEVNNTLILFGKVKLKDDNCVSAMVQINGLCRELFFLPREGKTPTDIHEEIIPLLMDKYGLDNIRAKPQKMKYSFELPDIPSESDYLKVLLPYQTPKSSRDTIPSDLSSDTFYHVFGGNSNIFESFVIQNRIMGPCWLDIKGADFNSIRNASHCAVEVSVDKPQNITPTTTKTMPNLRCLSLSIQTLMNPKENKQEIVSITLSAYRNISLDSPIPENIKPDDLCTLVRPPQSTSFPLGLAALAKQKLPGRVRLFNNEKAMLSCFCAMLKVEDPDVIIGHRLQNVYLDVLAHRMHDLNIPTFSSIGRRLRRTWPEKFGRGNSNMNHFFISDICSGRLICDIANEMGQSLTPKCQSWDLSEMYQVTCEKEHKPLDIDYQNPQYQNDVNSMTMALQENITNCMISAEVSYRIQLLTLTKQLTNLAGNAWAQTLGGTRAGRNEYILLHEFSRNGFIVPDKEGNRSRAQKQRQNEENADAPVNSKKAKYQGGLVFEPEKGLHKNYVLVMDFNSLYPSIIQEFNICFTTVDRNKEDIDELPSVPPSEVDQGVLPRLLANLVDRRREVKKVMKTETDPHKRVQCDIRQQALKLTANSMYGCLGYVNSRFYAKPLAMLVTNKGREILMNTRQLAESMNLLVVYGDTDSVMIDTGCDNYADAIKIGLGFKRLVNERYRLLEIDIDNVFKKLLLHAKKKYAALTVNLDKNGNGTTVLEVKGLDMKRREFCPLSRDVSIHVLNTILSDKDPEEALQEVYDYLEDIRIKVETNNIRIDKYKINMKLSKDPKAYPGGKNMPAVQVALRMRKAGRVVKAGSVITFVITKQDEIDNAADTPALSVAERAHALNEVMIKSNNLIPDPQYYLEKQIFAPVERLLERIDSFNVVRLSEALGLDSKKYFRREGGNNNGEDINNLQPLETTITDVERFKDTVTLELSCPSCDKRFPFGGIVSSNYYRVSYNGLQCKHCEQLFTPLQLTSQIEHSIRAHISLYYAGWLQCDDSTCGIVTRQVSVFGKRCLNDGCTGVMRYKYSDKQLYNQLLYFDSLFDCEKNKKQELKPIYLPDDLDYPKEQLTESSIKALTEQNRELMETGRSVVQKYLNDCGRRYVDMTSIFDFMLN

B1: Pol12 subunit of Pol α (protein, UniProt P38121 1-705)
chain: MSGSIDVITHFGPDADKPEIITALENLTKLHALSVEDLYIKWEQFSNQRRQTHTDLTSKNIDEFKQFLQLQMEKRANQISSSSKVNTSTKKPVIKKSLNSSPLFGLSIPKTPTLKKRKLHGPFSLSDSKQTYNVGSEAETNEKGNSSLKLEFTPGMAEDAVGDSAPLSHAKSSDAKTPGSSTFQTPTTNTPTTSRQNVPAGEILDSLNPENIEISSGNPNVGLLSTEEPSYNQVKVEPFYDAKKYKFRTMRQNLQEASDVLDDQIESFTKIIQNHYKLSPNDFADPTIQSQSEIYAVGRIVPDSPTYDKFLNPESLSLETSRMGGVGRRVRLDLSQVNELSFFLGQIVAFKGKNANGDYFTVNSILPLPYPNSPVSTSQELQEFQANLEGSSLKVIVTCGPYFANDNFSLELLQEFIDSINNEVKPHVLIMFGPFIDITHPLIASGKLPNFPQFKTQPKTLDELFLKLFTPILKTISPHIQTVLIPSTKDAISNHAAYPQASLIRKALQLPKRNFKCMANPSSFQINEIYFGCSNVDTFKDLKEVIKGGTTSSRYRLDRVSEHILQQRRYYPIFPGSIRTRIKPKDVSTKKETNDMESKEEKVYEHISGADLDVSYLGLTEFVGGFSPDIMIIPSELQHFARVVQNVVVINPGRFIRATGNRGSYAQITVQCPDLEDGKLTLVEGEEPVYLHNVWKRARVDLIAS
B2: Pri1 primase subunit of Pol α (protein, UniProt P10363 1-409)
chain: MTNSVKTNGPSSSDMEYYYKSLYPFKHIFNWLNHSPKPSRDMINREFAMAFRSGAYKRYNSFNSVQDFKAQIEKANPDRFEIGAIYNKPPRERDTLLKSELKALEKELVFDIDMDDYDAFRTCCSGAQVCSKCWKFISLAMKITNTALREDFGYKDFIWVFSGRRGAHCWVSDKRARALTDVQRRNVLDYVNVIRDRNTDKRLALKRPYHPHLARSLEQLKPFFVSIMLEEQNPWEDDQHAIQTLLPALYDKQLIDSLKKYWLDNPRRSSKEKWNDIDQIATSLFKGPKQDSHIIKLRECKEDLVLMTLYPKLDVEVTKQTIHLLKAPFCIHPATGNVCVPIDESFAPEKAPKLIDLQTEMEKNNDVSLTALQPFINQFQAYVSSLLKNELGSVKREREDDDEPASLDF
B3: Pri2 primase subunit of Pol α (protein, UniProt P20457 1-528)
chain: MFRQSKRRIASRKNFSSYDDIVKSELDVGNTNAANQIILSSSSSEEEKKLYARLYESKLSFYDLPPQGEITLEQFEIWAIDRLKILLEIESCLSRNKSIKEIETIIKPQFQKLLPFNTESLEDRKKDYYSHFILRLCFCRSKELREKFVRAETFLFKIRFNMLTSTDQTKFVQSLDLPLLQFISNEEKAELSHQLYQTVSASLQFQLNLNEEHQRKQYFQQEKFIKLPFENVIELVGNRLVFLKDGYAYLPQFQQLNLLSNEFASKLNQELIKTYQYLPRLNEDDRLLPILNHLSSGYTIADFNQQKANQFSENVDDEINAQSVWSEEISSNYPLCIKNLMEGLKKNHHLRYYGRQQLSLFLKGIGLSADEALKFWSEAFTRNGNMTMEKFNKEYRYSFRHNYGLEGNRINYKPWDCHTILSKPRPGRGDYHGCPFRDWSHERLSAELRSMKLTQAQIISVLDSCQKGEYTIACTKVFEMTHNSASADLEIGEQTHIAHPNLYFERSRQLQKKQQKLEKEKLFNNGNH

Biological target: T1, Pol1, polymerase subunit of Pol α, with a C-terminal 3XFLAG tag (S. cerevisiae)
Assay: co-purification (anti-Flag agarose, then heparin agarose); yeast cells with Pol1-3XFLAG and E. coli cells with Pol12 and with Pri1 and Pri2 co-crushed; lysate incubated with anti-Flag agarose 1.5 hr at 12°C, washed in 50 mM Hepes pH 7.4, 250 mM potassium glutamate, 1 mM EDTA, eluted with Flag peptide, then heparin agarose with a NaCl gradient; subunits seen by SDS-PAGE and confirmed by mass spectrometry

Binder | binding
B1 | binds
B2 | binds
B3 | binds
